Data: PubChem BioAssay AID485353 (National Center for Advancing Translational Sciences (NCATS), 2010)
The whole screen tested about 330,000 compounds, of which about 610 (0.18%) were called active. The shares of active, inactive and inconclusive entries below differ from those in the screen. Calls follow the shape of the full dose curve. Potencies beside an inconclusive call are fits to weak or partial responses and may not hold up.

experiment: qHTS of Yeast-based Assay for SARS-CoV PLP; also: nearly all actives have a fitted effect of over 55% in size; details: S. cerevisiae expressing SARS-CoV PLpro; Potency: growth rescue; series mostly up to 32.9 µM
Potency is read from the fitted curve at half-maximal effect.

SMILES | Potency
O=C(CCc1nnc2ccc(N3CCOCC3)nn12)Nc1ccc(F)cc1F | inconclusive: 20 µM [activator, single point]
C=CCN1C(=O)C(Cc2ccc(OCC)cc2)SC1=Nc1ccc(C(=O)O)cc1 (stereo not given) | inconclusive: 4.47 µM [activator, single point]
CN1CCN(CC(O)COc2ccc(C(=O)O)cc2)CC1 (stereo not given) | inconclusive: 3.16 µM [activator, single point]
COc1ccc2cc(C(=O)NCC(=O)O)sc(=O)c2c1OC | inconclusive: 11.2 µM [activator, single point]
Cc1ccc(S(=O)(=O)N[C@@H](C)C(=O)N2CCC(C(=O)N[C@@H](Cc3ccccc3)C(=O)O)CC2)cc1 | inactive
O=C(CSc1ccc(-c2ccco2)nn1)NCc1ccccc1Cl | inconclusive: 4.47 µM [activator, single point]
Cn1c(CNC(=O)CNC(=O)c2ccc(F)cc2)cc(=O)n(C)c1=O | inconclusive: 20 µM [activator, single point]
CCCCCCO | active: 11.2 µM
Cc1cccc(NC(=O)CN2C(=O)N/C(=C/c3ccc(C)o3)C2=O)c1 | inactive
Cc1ccc(S(=O)(=O)N2CCN(C(=O)NCc3ccc(C(=O)O)cc3)CC2)cc1 | inactive
O=C(CP(=O)(c1ccccc1)c1ccccc1)N/N=C/c1cc(Br)cc(Br)c1O | active: 2.51 µM
COc1ccc(C(=O)c2c(C)c3ccccc3n2CC(O)CNC(C)C)cc1 (stereo not given) | inactive
CCOC(=O)C/C(C)=N/NC(=O)c1cccs1 | inactive
CCCCCCNC(=O)N[C@@H](C(=O)NCCC[C@H]1CN2C(=NC[C@@H]2Cc2ccccc2)N1CCc1cccc(OC)c1)C(C)C | inactive
COC(=O)CNC(=O)C1CCN(S(=O)(=O)c2cccc3nsnc23)CC1 | inconclusive: 3.98 µM [activator, single point]
CCc1nnc(NC(=O)c2cnccn2)s1 | inconclusive: 15.8 µM [activator, single point]
Cc1cc2c(cc1S(=O)(=O)Nc1c(C)cccc1C)n(C)c(=O)c(=O)n2C | inconclusive: 20 µM [activator, single point]
O=C(O)c1cccc(N2C(=O)c3cccc(Oc4ccc(Cl)cc4)c3C2=O)c1 | inconclusive: 20 µM [activator, single point]
CCCCC(=O)Nc1ccc(C(N)=O)cc1 | inconclusive: 3.16 µM [activator, single point]
Cc1cc(C(=O)N2CCCC(N3CCN(c4cccc(Cl)c4)CC3)C2)no1 (stereo not given) | inconclusive: 3.16 µM [activator, partial curve]

Six entries from above, tab-delimited.
SMILES	Potency
O=C(CCc1nnc2ccc(N3CCOCC3)nn12)Nc1ccc(F)cc1F	inconclusive: 20 µM [activator, single point]
C=CCN1C(=O)C(Cc2ccc(OCC)cc2)SC1=Nc1ccc(C(=O)O)cc1 (stereo not given)	inconclusive: 4.47 µM [activator, single point]
CN1CCN(CC(O)COc2ccc(C(=O)O)cc2)CC1 (stereo not given)	inconclusive: 3.16 µM [activator, single point]
COc1ccc2cc(C(=O)NCC(=O)O)sc(=O)c2c1OC	inconclusive: 11.2 µM [activator, single point]
Cc1ccc(S(=O)(=O)N[C@@H](C)C(=O)N2CCC(C(=O)N[C@@H](Cc3ccccc3)C(=O)O)CC2)cc1	inactive
O=C(CSc1ccc(-c2ccco2)nn1)NCc1ccccc1Cl	inconclusive: 4.47 µM [activator, single point]
